Results deposited as PubChem BioAssay AID1259254 (NCATS, 2017)
The deposit covers about 59,000 reagents; this is a random part of them. Over the whole deposit, about 1,550 (2.6%) are marked active. 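G2 share is only a proxy for re-replication; each gene was hit by three separate siRNAs, and active genes were retested.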 Raw values vary from plate to plate and are shown uncorrected. Entries without a mark were called inactive. The numbers tell different reagents against one gene apart. Not given: the amount of reagent.

- Aim: 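Genome-wide screen for genes that prevent DNA re-replication in cancer cells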 (primary screen)
- Cells: human HCT116 colorectal cancer cells
- Knock-down reagent: single siRNA against human genes
- Timing: 3 days
- Measured: 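Nuclei stained with Hoechst and imaged; cell-cycle phase assigned by DNA content; G2 share scaled per plate, non-targeting siRNA 0%, GMNN siRNA 100%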
- Reading the numbers: G2 robust z-score and G2 cells, % of GMNN control: higher = more G2 cells, more excess DNA replication; raw share of cells in G2: higher = larger share of cells with G2 DNA content
- Active means: 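Active siRNAs have a G2 robust z of 5 or more median absolute deviations over the median, which in these data means about 38% or higher of GMNN control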

no.	target gene	siRNA no.	G2 robust z-score	G2 cells, % of GMNN control	raw share of cells in G2 (%)
1	GLG1	1	0.744	8.2	8.22
2	GLG1	2	-0.607	-1.3	4.77
3	GLG1	3	1.54	13.8	8.58
4	TDRG1	1	0.315	5.18	6.23
5	TDRG1	2	0.0637	3.42	4.51
6	TDRG1	3	0.226	4.56	4.86
7	TRIM13	1	0.61	7.26	8.85
8	TRIM13	2	-0.00976	2.9	4.78
9	TRIM13	3	-0.0831	2.38	7.42
10	SERPIND1	1	0.166	4.13	5.72
11	SERPIND1	2	-0.573	-1.06	4.66
12	SERPIND1	3	-0.358	0.447	5.85
13	PRG4	1	-0.577	-1.09	4.84
14	PRG4	2	-0.607	-1.3	3.4
15	PRG4	3	0.675	7.72	6.21
16	PARP15	1	1.32	12.3	11.8
17	PARP15	2	0.281	4.94	6.51
18	PARP15	3	-1.06	-4.5	2.81
19	MMD	1	-0.269	1.08	6.8
20	MMD	2	4.59	35.2	15.9
21	MMD	3	1.24	11.7	7.86
22	PYROXD1	1	-0.433	-0.0777	4.41
23	PYROXD1	2	-0.434	-0.0856	4.27
24	PYROXD1	3	1.31	12.2	5.7
25	DRAIC	1	0.152	4.04	5.18
26	DRAIC	2	0.803	8.62	5.58
27	DRAIC	3	0.322	5.23	4.89
28	PRKACG	1	0.397	5.76	7.51
29	PRKACG	2	-0.7	-1.96	4.75
30	PRKACG	3	4.73	36.2	16.8
31	MYBPH	1	-0.737	-2.22	2.46
32	MYBPH	2	-0.671	-1.75	4.68
33	MYBPH	3	-0.483	-0.43	5.3

A stretch of the results above, as a working copy:
no.	target gene	siRNA no.	G2 robust z-score	G2 cells, % of GMNN control	raw share of cells in G2 (%)
17	PARP15	2	0.281	4.94	6.51
18	PARP15	3	-1.06	-4.5	2.81
19	MMD	1	-0.269	1.08	6.8
20	MMD	2	4.59	35.2	15.9
21	MMD	3	1.24	11.7	7.86
22	PYROXD1	1	-0.433	-0.0777	4.41
23	PYROXD1	2	-0.434	-0.0856	4.27
24	PYROXD1	3	1.31	12.2	5.7
25	DRAIC	1	0.152	4.04	5.18

Additional results follow.
no.	target gene	siRNA no.	G2 robust z-score	G2 cells, % of GMNN control	raw share of cells in G2 (%)
34	DDX59	1	-0.241	1.27	5.96
35	DDX59	2	-0.613	-1.35	4.29
36	DDX59	3	0.378	5.63	6.23
37	GLE1	1	0.795	8.56	9.32
38	GLE1	2	0.576	7.02	6.66
39	GLE1	3	2.57	21	11.8
40	GH2	1	0.193	4.33	6.81
41	GH2	2	-0.207	1.51	4.2
42	GH2	3	-0.999	-4.06	3.72
43	DNAJC19	1	1.26	11.9	6.86
44	DNAJC19	2	-0.178	1.72	3.2
45	DNAJC19	3	0.275	4.9	6.02
46	OR2A14	1	-0.667	-1.72	3.52
47	OR2A14	2	8.7 (active)	64.2	23.4
48	OR2A14	3	-0.689	-1.88	1.9
49	GTF2F1	1	-0.456	-0.244	5.59
50	GTF2F1	2	0.906	9.35	8.44
51	GTF2F1	3	0.558	6.9	6.73
52	RNASEK	1	-0.965	-3.82	1.82
53	RNASEK	2	5.74 (active)	43.4	20.4
54	RNASEK	3	1.95	16.7	9.76
55	WNT8B	1	4.85	37.1	21.6
56	WNT8B	2	0.452	6.15	6.33
57	WNT8B	3	-0.257	1.16	3.76
58	ITGB1BP1	1	0.905	9.34	9.55
59	ITGB1BP1	2	2.15	18.1	11.5
60	ITGB1BP1	3	2.27	18.9	10.3
61	SFT2D1	1	-0.592	-1.2	3.61
62	SFT2D1	2	-0.0978	2.28	4.01
63	SFT2D1	3	-0.344	0.545	1.98
64	HS3ST4	1	0.482	6.36	7.61
65	HS3ST4	2	0.304	5.1	6.82
66	HS3ST4	3	-0.559	-0.968	2.87
67	LAMP2	1	0.33	5.29	7.22
68	LAMP2	2	1.25	11.7	8.86
69	LAMP2	3	-0.892	-3.31	2.16
70	LINC01501	1	0.161	4.1	5.39
71	LINC01501	2	1.01	10.1	7.67
72	LINC01501	3	2.85	23	13.5
73	CREBL2	1	1.65	14.6	12.1
74	CREBL2	2	-1.13	-5	2.26
75	CREBL2	3	0.0641	3.42	4.86
76	DEFB113	1	0.315	5.19	5.46
77	DEFB113	2	-0.331	0.638	3.35
78	DEFB113	3	-0.188	1.64	3.72
79	UBR1	1	0.462	6.22	6.98
80	UBR1	2	-0.0575	2.56	5.78
81	UBR1	3	3.91	30.5	20.5
82	VAMP3	1	1.6	14.2	11.7
83	VAMP3	2	-0.47	-0.338	3.8
84	VAMP3	3	0.665	7.64	6.19
85	ASB4	1	-0.0167	2.85	4.62
86	ASB4	2	-0.61	-1.33	3.71
87	ASB4	3	1.58	14.1	7.84
